Laboratory results: PubChem BioAssay AID1224830 (NIAID, 2016)
This is an unselected part of about 18,000 deposited reagents. About 2,900 of them (16%) were called active. 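Calls are made per well; low scores hint the gene aids the LPS response, high scores that it dampens it.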 Repeated entries: four replicate wells of each siRNA pool.

Test: 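Regulators of TLR4 signalling towards TNF-alpha in macrophage-like cells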 (primary screen)
System: human THP-1 monocytic leukaemia cells, TNF dual-luciferase reporter clone, PMA-differentiated to macrophage-like cells
Reagents: siRNA pool against human genes, 50 nM
Duration: LPS for 4 h, given about 3 days after siRNA transfection
Conditions: bacterial LPS (TLR4 ligand), 10 ng/ml
Read-out: 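Ratio of firefly to renilla light, scaled to the plate median and expressed as a robust z-score per replicate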
Direction: TNF reporter robust z-score: higher = stronger TNF reporter response to LPS
Rule for the call: 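a well is active when its z-score exceeds 2.8 or falls below -1.5; control wells carry no call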

For RND3 (Rho family GTPase 3), the entry reads TNF reporter robust z-score -1.22; inactive. RND3 (Rho family GTPase 3) gave TNF reporter robust z-score -1.26; inactive. With knock-down of RND3 (Rho family GTPase 3), the screen gave TNF reporter robust z-score -1.21; inactive. Against RND3 (Rho family GTPase 3) the deposit lists TNF reporter robust z-score -0.86; inactive. With knock-down of CIPC (CLOCK interacting pacemaker), the record shows TNF reporter robust z-score -0.21; inactive. After knock-down of CIPC (CLOCK interacting pacemaker), the screen gave TNF reporter robust z-score 0.11; inactive.

Silencing of CIPC (CLOCK interacting pacemaker) resulted in: TNF reporter robust z-score 0.02; inactive. Silencing of CIPC (CLOCK interacting pacemaker) gave: TNF reporter robust z-score 0.24; inactive. RPS18 (ribosomal protein S18) showed TNF reporter robust z-score -0.29; inactive. RPS18 (ribosomal protein S18) showed TNF reporter robust z-score -0.95; inactive. RPS18 (ribosomal protein S18) scored TNF reporter robust z-score -0.59; inactive. Depletion of RPS18 (ribosomal protein S18) gave: TNF reporter robust z-score 0.11; inactive.

NFKBIZ (NFKB inhibitor zeta) scored TNF reporter robust z-score -1.29; inactive. Depletion of NFKBIZ (NFKB inhibitor zeta) came out at: TNF reporter robust z-score -0.63; inactive. After knock-down of NFKBIZ (NFKB inhibitor zeta), the screen gave TNF reporter robust z-score -0.13; inactive. NFKBIZ (NFKB inhibitor zeta) scored TNF reporter robust z-score -0.27; inactive. FOXM1 (forkhead box M1) gave TNF reporter robust z-score 0.06; inactive. FOXM1 (forkhead box M1) gave TNF reporter robust z-score 0.24; inactive.

With knock-down of FOXM1 (forkhead box M1), the record shows TNF reporter robust z-score -1.13; inactive. With knock-down of FOXM1 (forkhead box M1), the screen gave TNF reporter robust z-score -0.48; inactive.

Entries listed so far whose gene name starts with F or f:
FOXM1 (forkhead box M1) | TNF reporter robust z-score: 0.06; activity call: inactive
FOXM1 (forkhead box M1) | TNF reporter robust z-score: 0.24; activity call: inactive
FOXM1 (forkhead box M1) | TNF reporter robust z-score: -1.13; activity call: inactive
FOXM1 (forkhead box M1) | TNF reporter robust z-score: -0.48; activity call: inactive
